Reference: paper PMC12520464

Target: T1, ARG1 (arginase-1), endogenous (human (endogenous in HCT116 and RKO)) (UniProt P05089)
T1 sequence: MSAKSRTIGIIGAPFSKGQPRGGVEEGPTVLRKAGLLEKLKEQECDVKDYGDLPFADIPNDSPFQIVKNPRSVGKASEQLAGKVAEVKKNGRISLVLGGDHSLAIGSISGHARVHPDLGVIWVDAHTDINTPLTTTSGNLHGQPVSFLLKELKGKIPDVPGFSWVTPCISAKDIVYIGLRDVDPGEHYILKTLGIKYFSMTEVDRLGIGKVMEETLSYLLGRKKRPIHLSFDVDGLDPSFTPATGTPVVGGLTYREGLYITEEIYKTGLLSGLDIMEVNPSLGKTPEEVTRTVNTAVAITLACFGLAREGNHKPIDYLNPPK
Assay: affinity purification with mass spectrometry; immunoprecipitation with anti-ARG1 antibody from lysate of HCT116 cells treated with BHB for 48 h; gel bands, trypsin, LC-MS (Q-Exactive)

binding: binds
Substance: solute carrier family 3 member 2 (SLC3A2), endogenous (from UniProt P08195 1-529)

Results are given in words; binding and its absence hold for the method and conditions named. In cells and extracts the contact can be indirect. Here binding means that the protein was enriched with, or labelled near, the bait; the list need not be complete.
